The target of this test is T1, human DKK1 antigen (Sino Biological, 10170-H08H) (human) (UniProt O94907).
T1 sequence (looked up): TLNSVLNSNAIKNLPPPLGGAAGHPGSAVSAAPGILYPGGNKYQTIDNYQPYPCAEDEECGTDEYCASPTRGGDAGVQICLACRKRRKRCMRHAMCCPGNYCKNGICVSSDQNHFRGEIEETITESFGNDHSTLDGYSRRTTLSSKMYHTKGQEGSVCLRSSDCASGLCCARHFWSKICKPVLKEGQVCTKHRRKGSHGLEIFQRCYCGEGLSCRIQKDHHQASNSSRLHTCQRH
Put plainly: competitive ELISA against LRP6 for DKK1. For orientation: ELISA stands for enzyme-linked immunosorbent assay.

These are yes or no findings as the source states them, for the method shown. Some entries that bind do so weakly or less than the wild type.

Our source for the binding values is patent US20250122271A1, “ANTI-DKK1 ANTIBODY, PHARMACEUTICAL COMPOSITION THEREOF, AND USE THEREOF” (SHANGHAI JUNSHI BIOSCIENCES CO., LTD., priority 2022, published 2025).

B1: chi-22 (antibody, V domains shown)
VH: QVTLKESGPGILQPSQTLSLTCSFSGFSLSTSGMGVGWIRQPSGKGLEWLAHIWWDDVKRYNPALKSRLTISKDTSSSQVFLKIASVDTTDTASYYCSRIARSPTGFAYWGQGTL
VL: QIVLTQSPVIMSASPGEKVTMTCSASSSVSYMYWYQQKPGSSPRLLIYDTSNLASGVPVRFSGSGSGTSYSLTISRMEAEDAATYYCQQWSSYPPALTFGAGTKLELK
For B1, the binding result is recorded as “binds”.
